No constants are given. Whether binding was seen depends on the method and setting. Some entries that bind do so weakly or less than the wild type.
B1: EPOR/CD131 binder clonotype 56 (antibody, V domains shown)
VH: EVQLVESGGGLVKPGGSLRLSCAASGFTFSSYSMNWVRQAPGKGLEWVSSISSSSSYIYYADSVKGRFTISRDNAKNSLYLQMNSLRAEDTAVYYCARADSLTGGFFDYWGQGTLVTVSS
VL: SYELTQPPSVSVSPGQTARITCSGDALPKKYAYWYQQKSGQAPVLVIYEDSKRPSGIPERFSGSSSGTMATLTISGAQVEDEADYYCYSTDSSGNHSWVFGGGTKLTVL
B2: EPOR/CD131 binder clonotype 57 (antibody, V domains shown)
VH: QVQLVQSESELKKPGASVKVSCKASGYTFISYAMSWVRQAPGQGLEWMGWINTNTGNPTYAQGFTGRFVFSLDTSVSTAYLQISSLKAEDTAVYYCAERGWNYDYWGQGTLVTVSS
VL: QAVVTQEPSLTVSPGGTVTLTCGSSTGAVTSGHYPYWFQQKPGQAPRTLIYDTSNKHSWTPARFSGSLLGGKAALTLSGAQPEDEAEYYCLLSYSGAWVFGGGTKLTVL
B3: EPOR/CD131 binder clonotype 65 (antibody, V domains shown)
VH: EVQLVESGGGLIQPGGSLRLSCAASGFTVSSNYMSWVRQAPGKGLEWVSVIYSGGSTYYADSVKGRFTISRDNSKNTLYLQMNSLRAEDTAVYYCARDSTTVTLFDYWGQGTLVTVSS
VL: QSALTQPASVSGSPGQSITISCTGTSSDVGGYNYVSWYQQHPGKAPKLMIYEVSNRPSGVSNRFSGSKSGNTASLTISGLQAEDEADYYCSSYTSSSTYVFGTGTKVTVL
B4: EPOR/CD131 binder clonotype 68 (antibody, V domains shown)
VH: EVQLVESGGGLVKPGGSLRLSCAASGFTFSSYSMNWVRQAPGKGLEWVSSISSSSSYIYYADSVKGRFTISRDNAKNSLYLQMNSLRAEDTAVYYCARGIAVAGPHAFDIWGQGTMVTVSS
VL: QSALTQPPSASGSPGQSVTISCTGTSSDVGGYNYVSWYQQHPGKAPKLMIYEVSKRPSGVPDRFSGSKSGNTASLTVSGLQAEDEADYYCSSYAGSNNFVVFGGGTKLTVL
B5: EPOR/CD131 binder clonotype 70 (antibody, V domains shown)
VH: EVQLVESGGGLIQPGGSLRLSCAASGFTVSSNYMSWVRQAPGKGLEWVSVIYSGGSTYYADSVKGRFTISRDNSKNTLYLQMNSLRAEDTAVYYCARGYSGSYAYWGQGTLVTVSS
VL: QSVLTQPPSVSGAPGQRVTISCTGSSSNIGAGYDVHWYQQLPGTAPKLLIYGNSNRPSGVPDRFSGSKSGTSASLAITGLQAEDEADYYCQSYDSSLSGYVFGTGTKVTVL
B6: EPOR/CD131 binder clonotype 72 (antibody, V domains shown)
VH: QVQLQQSGPGLVKPSQTLSLTCAISGDSVSSNSAAWNWIRQSPSRGLEWLGRTYYRSKWYNDYAGSVKSRIIINPDTSKNQLSLQLKSVTPEDTAVYYCARKWELRDAFDIWGQGTMVTVSS
VL: QSALTQPASVSGSPGQSITISCTGTSSDVGGYNYVSWYQQHPGKAPKLMIYDVSKRPSGVSNRFSGSKSGNTASLTISGLQAEDEADYYCCSYAGRSTLGIDWVFGGGTKLTVL
B7: EPOR/CD131 binder clonotype 74 (antibody, V domains shown)
VH: EVQLVQSGAVVKKPGESLKISCKGSGYSFSSYWIGWVRQMPGKGLEWMGIIYPGDSDTRYSPSFQGQVTISADKSISTAYLQWSSLQASDTAMYFCAKRRMTGSHSWFDPWGQGTLVTVSS
VL: SYVLTQPPSVSVAPGKTARITCEGDNIGSESVHWYQQKPGQAPVLVIYFDSDRPSGIPERFSGSNSGITATLTISRVEAGDEADFYCQVWDNGSDHVVFGGGTKLTVL
B8: EPOR/CD131 binder clonotype 215 (antibody, V domains shown)
VH: EVQLVESGGGLVQPGGSLRLSCAASGFTFSSYWMHWVRQAPGKGLVWVSRINSDGSSTSYADSVKGRFTISRDNAKNTLYLQMNSLRAEDTAVYYCARIDYWGQGTLVTVSS
VL: QSALTQPASVSGSPGQSITISCTGTSSDVGGYNYVSWYQQHPGKAPKLMIYEVSNRPSGVSNRFSGSKSGNTASLTISGLQAEDEADYYCSSYTSSSTWVFGGGTKLTVL
B9: EPOR/CD131 binder clonotype 225 (antibody, V domains shown)
VH: QVQLVQSGAEVKKPGASVKVSCKASGYTFTSYGISWVRQAPGQGLEWMGWISAYNGNTNYAQKLQGRVTMTTDTSTSTAYMELRSLRSDDTAVYYCARGWYFDYWGQGTLVTVSS
VL: QSALTQPASVSGSPGQSITISCTGTSSDVGGYNYVSWYQQHPGKAPKLMIYEVSNRPSGVSNRFSGSKSGNTASLTISGLQAEDEADYYCSSYTSSSTLVFGGGTKLTVL
B10: EPOR/CD131 binder clonotype 226 (antibody, V domains shown)
VH: EVQLVESGGGLVQPGGSLRLSCAASGFTFSTYAMNWVRQAPGKGLEWVSAISGGGGSTYYADSVKGRFTISRDNSKNTLYLQMNSLRAEDTAVYYCAKRVFFDYWGQGTLVTVSS
VL: QSALTQPASVSGSPGQSITISCTGTSSDVGGYNYVSWYQQHPGKAPKLMIYEVSNRPSGVSNRFSGSKSGNTASLTISGLQAEDEADYSCSSYTISSTWVFGGGTKLTVL
B11: EPOR/CD131 binder clonotype 229 (antibody, V domains shown)
VH: VVQLVESGGGLVQPGGSLRLSCAASGFTFSRYWMSWVRQAPGKGLEWVANINQDGSEEYYVDSVKGRFTISRDNAKSSLSLQMNSLRAEDTALYYCATDLNWNGYWGQGTLVTVSS
VL: QSALTQPASVSGSPGQSITISCTGTSSDVGGYDYVSWYQQHPGKAPKFMISGVSNRPSGVSNRFSGSKSGNTASLTISGLQAEDEADYYCSSYTRSRTWVFGGGTKLTVL
B12: EPOR/CD131 binder clonotype 230 (antibody, V domains shown)
VH: EVQLVESGGGLVQPGGSLRLSCAASGFTFSRCDMYWVRQATGKGLEWVSAIGAAGDTYYPGSVKGRFTISRENAKNSLYLQMNSLRAGDTAVYYCATGYNWNPDYWGQGTLVTVSS
VL: QAVLTQPASLSASPGASASLTCTLRSGINVGTYRIYWYQQKPGSPPQYLLRYKSDSDKQQGSGVPSRFSGSKDASANAGILLISGLQSEDEADYYCMIWHSSASVFGGGTKLTVL
B13: EPOR/CD131 binder clonotype 231 (antibody, V domains shown)
VH: QVQLVESGGGVVQPGRSLRLSCEASGFTFINYGMHWVRQAPGKGLEWVAVIWYDGSNKYYADSVKGRFTISRDNSKNTLYLQMNSLRAEDTAVYYCARDRSSSSDYWGQGTLVIVSS
VL: SYELTQPSSVSVSPGQTARITCSGDVLAKKYARWFQQKPGQAPVLVIYKDSERPSGIPERFSGSSSGTTVTLTISGAQVEDEADYYCYSAADNNRVFGGGTKLTVL
B14: EPOR/CD131 binder clonotype 233 (antibody, V domains shown)
VH: EVQLVESGGGLVQPGRSLRLSCAASGFTFDDYAMHWVRQAPGKGLEWVSGISWNSGSIGYADSVKGRFTISRDNAKNSLYLQMNSLRAEDTALYYCAKDSGYSPDYWGQGTLVTVSS
VL: SYELTQPPSVSVSPGQTARITCSGDALPKKYAYWYQQKSGQAPVLVIYEDSKRPSGIPERFSGSSSGTMATLTISGAQVEDEADYYCYSTDSSGKGVFGGGTKLTVL
B15: EPOR/CD131 binder clonotype 235 (antibody, V domains shown)
VH: QVQVVQSGAEVRKSGASVKVSCKASGYTFTSYYIHWVRQVPGQGLEWMGLINPSGGSTIYAQKFQGRVTMTRDTSTSSVYMELSSLRSEDTAAYYCARGGWGTMDVWGKGTTVTVSS
VL: SSELTQDPAVSVALGQTVRITCQGDSLRSYYASWYQQKPGQAPVLVIYGKNNRPSGIPDRFSGSSSGNTASLTITGAQAEDEADYYCNSRDSSGNHYVFGTGTKVTVL
B16: EPOR/CD131 binder clonotype 236 (antibody, V domains shown)
VH: EVQLVESGGGLVQPGGSLRLSCAASGFTFSSYDMHWVRQATGKGLEWVSAIGTAGDTYYPGSVKGRFTISRENAKNSLYLQMNSLRAGDTAVYYCARAWELDAFDIWGQGTMVTVSS
VL: SSELTQDPAVSVALGQTVRITCQGDSLRSYYASWYQQKPGQAPVLVIYGKNNRPSGIPDRFSGSSSGNTASLTITGAQAEDEADYYCNSRDSSGNHVVFGGGTKLTVL
B17: EPOR/CD131 binder clonotype 239 (antibody, V domains shown)
VH: EVQVMESGGGLVKPGGSLRLSCAASGFSFSSHSLNWVRQAPGKGLEWVSSISGISNYIAYADSVRGRFTISRDNAKNSLFLQMNSLRAEDTGVYYCARITVVSFDYWGQGTLVTVTS
VL: QSALTQPASVSGSPGQSITISCTGTNNDVGYYNYVSWYQQHPDKAPKLMIYDVIKRPSGVSDRFSGSKSGNTASLTISGLQAEDEADYYCCSYAGSSTWVFGGGTKLSVL
B18: EPOR/CD131 binder clonotype 241 (antibody, V domains shown)
VH: QVQLVQSGAEVKKPGASVKVSCKASGYTFTSYYIHWVRQAPGQGLEWMGIINPSGGTTNYAQKFQGRVTMTRDTSTSTVYMELSSLRSEDTAVYYCARGDWGTMDVWGKGTTVTVSS
VL: QSALTQPASVSGSPGQSITISCTGTSSDVGNYNYVSWYQQHPGKVPKLMIYEVIYRPSGVSNRFSGSKSGNTASLTISGLQAEDEADYYCTSYTRNNTYVFGSGTKVTVL
B19: EPOR/CD131 binder clonotype 242 (antibody, V domains shown)
VH: EVQLVESGGGLVQPGGSLRLSCAASGFTFSSYWMSWVRQAPGKGLEWVANIKQDGSEKYYVDSVKGRFTISRDNAKNSLYLQMNSLRAEDTAVYYCARDGTGWFDPWGQGTLVTVSS
VL: QSVLTQPPSVSGAPGQRVTISCTGSSSNIGAGYDVHWYQQLPGTAPKLLIYGNSNRPSGVPDRFSGSKSGTSASLAITGLQAEDEADYYCQSYDSSLSGWVFGGGTKLTVL
B20: EPOR/CD131 binder clonotype 243 (antibody, V domains shown)
VH: QVQLVQSGAEVKKPGASVKVSCKASGYTFTSYGISWVRQAPGQGLEWMGWISAYNGNTNYAQKLQGRVTMTTDTSTSTAYMELRSLRSDDTAVYYCARRGTVVFDYWGQGTLVTVSS
VL: QSALTQPASVSGSPGQSITISCTGTSSDVGGYNYVSWYQQHPGKAPKLMIYDVSKRPSGVSNRFSGSKSGNTASLTISGLQAEDEADYYCCSYAGSSTYVVFGGGTKLTVL
B21: EPOR/CD131 binder clonotype 244 (antibody, V domains shown)
VH: QVQLVQSGAEVKKPGASVKVSCKASGYTFTNYGISWVRQAPGQGLEWMGWISAYNGNTNYAQNLQGRVTMTTDTSTSTAYMELRSLRSDDTAVYYCARPLSGTLDNWGQGTLVTVSS
VL: QSALTQPASVSGSPGQSITISCTGTSSDVGGYNYVSWYQQHPGKAPKLMIYDVSKRPSGVSNRFSGSKSGNTASLTISGLQAEDEADYYCCSYAGRSTLGIDWVFGGGTKLTVR
B22: EPOR/CD131 binder clonotype 246 (antibody, V domains shown)
VH: EVQLVESGGGLVQPGGSLRLSCAASGFTFSSYSMNWVRQAPGKGLEWVSYISSSSSTIYYADSVKGRFTISRDNAKNSLYLQMNSPRDEDTAVYYCARESIAALFDYWGQGTLVTVSS
VL: SSELTQDPAVSVALGQTVRITCQGDSLRSYYASWYQQKPGQAPVLVIYGKNNRPSGIPDRFSGSSSGNTASLTITGAQAEDEADYYCNSRDSSGNHLVFGGGTKLTVL

The chains behind the UniProt entries cited, without tags or fusion partners. Residues count along the entry.
UniProt P32927, residues 17-443: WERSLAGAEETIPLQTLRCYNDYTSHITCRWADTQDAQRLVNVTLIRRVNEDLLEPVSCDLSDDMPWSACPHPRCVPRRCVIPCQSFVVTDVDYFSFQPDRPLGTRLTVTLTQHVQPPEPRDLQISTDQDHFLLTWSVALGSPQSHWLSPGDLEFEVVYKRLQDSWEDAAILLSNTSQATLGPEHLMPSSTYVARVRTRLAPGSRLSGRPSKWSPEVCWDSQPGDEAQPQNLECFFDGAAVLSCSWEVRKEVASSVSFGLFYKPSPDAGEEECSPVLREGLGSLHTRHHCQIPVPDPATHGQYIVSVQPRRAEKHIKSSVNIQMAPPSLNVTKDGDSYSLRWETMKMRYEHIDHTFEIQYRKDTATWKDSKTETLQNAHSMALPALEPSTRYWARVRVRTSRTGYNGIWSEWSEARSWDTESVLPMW

These binders were tested against hCD131-Fc (IME021, in house) (human) (UniProt P32927) (assay: B-cell sort with labelled hEPOR-Fc and hCD131-Fc).

Question: Which binding does the source give for B1 here?
Answer: binds

Question: B2 was tested. Which binding did it give?
Answer: binds

Question: How did the binding turn out when B3 was run?
Answer: binds

Question: B4 was tested. Which binding did it give?
Answer: binds

Question: B5 was tested. Which binding did it give?
Answer: binds

Question: Which binding does the source give for B6 here?
Answer: binds

Question: Which binding does the source give for B7 here?
Answer: binds

Question: Which binding does the source give for B8 here?
Answer: binds

Question: Which binding does the source give for B9 here?
Answer: binds

Question: With B10 as the binder, how does the binding read?
Answer: binds

Question: B11 was tested. Which binding did it give?
Answer: binds

Question: How did the binding turn out when B12 was run?
Answer: binds

Question: With B13 as the binder, how does the binding read?
Answer: binds

Question: Which binding does the source give for B14 here?
Answer: binds

Question: Which binding does the source give for B15 here?
Answer: binds

Question: For B16, which binding is on record?
Answer: binds

Question: For B17, which binding is on record?
Answer: binds

Question: How did the binding turn out when B18 was run?
Answer: binds

Question: For B19, which binding is on record?
Answer: binds

Question: B20 was tested. Which binding did it give?
Answer: binds

Question: For B21, which binding is on record?
Answer: binds

Question: With B22 as the binder, how does the binding read?
Answer: binds

Reference: US20250388687A1
